Data on 1 substance can be found in PMC10821278.

The chains behind the UniProt entries cited, without tags or fusion partners. Residues count along the entry.
UniProt P21530, residues 690-1062: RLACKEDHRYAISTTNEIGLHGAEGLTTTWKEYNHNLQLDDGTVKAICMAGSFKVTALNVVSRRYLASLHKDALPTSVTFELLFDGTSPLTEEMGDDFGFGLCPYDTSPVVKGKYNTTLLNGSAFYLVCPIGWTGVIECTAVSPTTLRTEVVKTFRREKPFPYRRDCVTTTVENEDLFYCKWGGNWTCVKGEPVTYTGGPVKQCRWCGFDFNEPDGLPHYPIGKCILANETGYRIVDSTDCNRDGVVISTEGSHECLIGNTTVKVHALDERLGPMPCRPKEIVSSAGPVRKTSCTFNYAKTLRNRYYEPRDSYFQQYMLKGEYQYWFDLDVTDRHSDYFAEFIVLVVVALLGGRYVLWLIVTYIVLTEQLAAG
UniProt Q45FY6: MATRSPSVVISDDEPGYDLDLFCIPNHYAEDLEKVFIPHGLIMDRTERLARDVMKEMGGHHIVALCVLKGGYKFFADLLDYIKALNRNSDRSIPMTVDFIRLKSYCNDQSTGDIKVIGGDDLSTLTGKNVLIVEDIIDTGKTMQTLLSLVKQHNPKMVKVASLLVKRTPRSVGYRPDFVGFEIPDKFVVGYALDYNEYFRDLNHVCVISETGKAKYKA

Results are given in words; binding and its absence hold for the method and conditions named. Some entries that bind do so weakly or less than the wild type.

This assay addresses CSFV E2 fused to the Gal4 binding domain (E2-BD) (classical swine fever virus) (UniProt P21530). Briefly: two-hybrid.

For “swine hypoxanthine phosphoribosyl transferase 1 (HPRT1) fused to the Gal4 activation domain (HPRT1-AD) (from UniProt Q45FY6 1-218)”, the binding entry is recorded as “binds”.
